The source of these data is the supplement of paper PMC12595434, “Development of retinoid nuclear receptor pathway antagonists through targeting aldehyde dehydrogenase 1A3” (iScience, 2025).

Chains of the proteins cited; added tags and fusions are not shown. Lines headed by an entry give the natural chain unless they say otherwise; changes in a name come on top.
UniProt O43933: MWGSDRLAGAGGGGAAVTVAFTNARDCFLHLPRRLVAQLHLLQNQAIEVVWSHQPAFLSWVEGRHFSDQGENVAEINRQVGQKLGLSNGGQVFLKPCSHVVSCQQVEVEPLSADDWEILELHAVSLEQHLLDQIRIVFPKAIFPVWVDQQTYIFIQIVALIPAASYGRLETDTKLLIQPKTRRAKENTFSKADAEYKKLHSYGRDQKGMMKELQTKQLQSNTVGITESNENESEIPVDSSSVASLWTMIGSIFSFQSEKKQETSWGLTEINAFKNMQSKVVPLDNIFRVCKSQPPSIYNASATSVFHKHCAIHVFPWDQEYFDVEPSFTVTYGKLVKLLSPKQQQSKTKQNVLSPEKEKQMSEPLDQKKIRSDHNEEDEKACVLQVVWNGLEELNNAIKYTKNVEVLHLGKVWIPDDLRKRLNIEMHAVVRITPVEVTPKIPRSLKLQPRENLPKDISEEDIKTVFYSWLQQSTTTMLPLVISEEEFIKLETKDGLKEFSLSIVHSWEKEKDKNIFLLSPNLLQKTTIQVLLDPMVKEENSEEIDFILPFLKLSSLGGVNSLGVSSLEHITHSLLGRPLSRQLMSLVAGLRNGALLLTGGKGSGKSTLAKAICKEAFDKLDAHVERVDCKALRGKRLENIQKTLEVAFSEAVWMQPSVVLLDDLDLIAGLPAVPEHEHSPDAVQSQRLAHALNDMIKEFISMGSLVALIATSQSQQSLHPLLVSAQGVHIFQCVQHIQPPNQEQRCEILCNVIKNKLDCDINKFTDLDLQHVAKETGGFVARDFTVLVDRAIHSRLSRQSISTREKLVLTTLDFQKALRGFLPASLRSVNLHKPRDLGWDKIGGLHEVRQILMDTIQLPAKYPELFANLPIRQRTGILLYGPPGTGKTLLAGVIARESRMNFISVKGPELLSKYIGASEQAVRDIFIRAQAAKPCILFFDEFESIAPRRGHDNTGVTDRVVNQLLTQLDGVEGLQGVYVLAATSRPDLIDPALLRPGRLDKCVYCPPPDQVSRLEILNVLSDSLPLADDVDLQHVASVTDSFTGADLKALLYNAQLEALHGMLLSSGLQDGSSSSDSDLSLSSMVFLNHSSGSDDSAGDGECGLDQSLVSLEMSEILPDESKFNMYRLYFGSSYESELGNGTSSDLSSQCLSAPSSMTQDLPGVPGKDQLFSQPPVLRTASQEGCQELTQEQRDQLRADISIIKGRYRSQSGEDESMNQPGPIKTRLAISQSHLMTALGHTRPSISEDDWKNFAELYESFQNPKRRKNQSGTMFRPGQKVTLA
UniProt O43676, whole entry: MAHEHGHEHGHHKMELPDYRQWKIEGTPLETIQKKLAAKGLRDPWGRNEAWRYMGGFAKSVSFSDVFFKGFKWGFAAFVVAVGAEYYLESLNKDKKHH
UniProt O60244: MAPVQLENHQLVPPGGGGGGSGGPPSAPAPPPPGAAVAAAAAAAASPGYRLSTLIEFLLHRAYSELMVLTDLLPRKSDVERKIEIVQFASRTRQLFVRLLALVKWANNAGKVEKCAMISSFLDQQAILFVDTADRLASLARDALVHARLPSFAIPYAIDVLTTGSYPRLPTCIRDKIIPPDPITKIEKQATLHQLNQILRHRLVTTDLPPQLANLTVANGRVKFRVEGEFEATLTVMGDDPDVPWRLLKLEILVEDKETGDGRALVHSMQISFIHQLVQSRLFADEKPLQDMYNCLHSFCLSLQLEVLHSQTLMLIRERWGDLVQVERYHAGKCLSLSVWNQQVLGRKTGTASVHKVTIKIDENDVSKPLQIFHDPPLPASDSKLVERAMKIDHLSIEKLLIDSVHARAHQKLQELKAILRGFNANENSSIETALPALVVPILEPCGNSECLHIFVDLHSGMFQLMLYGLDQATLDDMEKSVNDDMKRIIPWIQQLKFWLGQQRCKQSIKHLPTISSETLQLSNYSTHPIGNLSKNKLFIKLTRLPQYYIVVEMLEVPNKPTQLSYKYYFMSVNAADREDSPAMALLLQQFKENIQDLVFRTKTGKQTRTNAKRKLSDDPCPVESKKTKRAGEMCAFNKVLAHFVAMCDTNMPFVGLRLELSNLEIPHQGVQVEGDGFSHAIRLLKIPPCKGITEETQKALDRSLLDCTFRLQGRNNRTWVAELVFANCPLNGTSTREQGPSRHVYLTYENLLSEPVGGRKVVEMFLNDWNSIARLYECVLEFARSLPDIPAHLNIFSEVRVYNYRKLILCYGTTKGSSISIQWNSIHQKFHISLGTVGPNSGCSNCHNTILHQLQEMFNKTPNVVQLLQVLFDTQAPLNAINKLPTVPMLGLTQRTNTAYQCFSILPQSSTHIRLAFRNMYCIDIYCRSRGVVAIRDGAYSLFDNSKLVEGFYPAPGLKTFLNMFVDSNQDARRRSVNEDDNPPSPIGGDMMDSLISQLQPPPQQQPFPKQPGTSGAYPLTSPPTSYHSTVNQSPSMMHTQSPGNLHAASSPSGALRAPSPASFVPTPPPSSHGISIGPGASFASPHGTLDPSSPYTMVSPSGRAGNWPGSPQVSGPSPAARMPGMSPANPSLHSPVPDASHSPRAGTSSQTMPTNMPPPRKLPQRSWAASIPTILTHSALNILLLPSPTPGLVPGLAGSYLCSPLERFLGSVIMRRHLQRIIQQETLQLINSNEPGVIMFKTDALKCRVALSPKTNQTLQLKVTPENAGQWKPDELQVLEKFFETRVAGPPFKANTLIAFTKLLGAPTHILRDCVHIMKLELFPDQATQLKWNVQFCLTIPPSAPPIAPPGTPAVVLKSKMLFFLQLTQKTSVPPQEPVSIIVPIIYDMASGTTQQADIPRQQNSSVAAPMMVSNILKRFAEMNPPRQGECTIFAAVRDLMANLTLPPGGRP
UniProt O60927: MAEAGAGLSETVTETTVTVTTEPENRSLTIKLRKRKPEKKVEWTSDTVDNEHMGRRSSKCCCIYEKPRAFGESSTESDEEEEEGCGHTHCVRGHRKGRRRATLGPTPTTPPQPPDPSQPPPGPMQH
UniProt O43707, whole entry: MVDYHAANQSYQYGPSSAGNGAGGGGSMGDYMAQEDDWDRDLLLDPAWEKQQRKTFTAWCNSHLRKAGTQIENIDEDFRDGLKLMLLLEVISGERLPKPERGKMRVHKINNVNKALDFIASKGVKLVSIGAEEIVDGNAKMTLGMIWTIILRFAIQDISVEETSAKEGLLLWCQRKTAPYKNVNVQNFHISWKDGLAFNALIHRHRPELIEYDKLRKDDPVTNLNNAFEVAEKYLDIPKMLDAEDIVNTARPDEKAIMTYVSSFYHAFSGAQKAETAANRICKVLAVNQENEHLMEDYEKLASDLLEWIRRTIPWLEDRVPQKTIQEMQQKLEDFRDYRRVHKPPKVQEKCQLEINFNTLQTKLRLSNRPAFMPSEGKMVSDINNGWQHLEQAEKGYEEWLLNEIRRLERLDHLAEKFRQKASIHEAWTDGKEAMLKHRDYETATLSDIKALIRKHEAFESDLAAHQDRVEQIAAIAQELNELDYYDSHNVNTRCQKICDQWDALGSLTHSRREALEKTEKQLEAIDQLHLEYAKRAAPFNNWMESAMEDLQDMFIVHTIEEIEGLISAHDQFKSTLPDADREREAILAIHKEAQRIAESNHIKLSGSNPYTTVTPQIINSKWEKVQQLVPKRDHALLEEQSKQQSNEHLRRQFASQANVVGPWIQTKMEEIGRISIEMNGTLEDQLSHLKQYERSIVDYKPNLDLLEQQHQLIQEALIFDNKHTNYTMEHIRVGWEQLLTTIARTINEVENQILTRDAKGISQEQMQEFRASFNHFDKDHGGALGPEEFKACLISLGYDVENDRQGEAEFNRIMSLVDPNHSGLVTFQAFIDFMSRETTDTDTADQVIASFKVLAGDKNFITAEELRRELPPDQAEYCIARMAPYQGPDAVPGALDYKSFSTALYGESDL
UniProt O60551: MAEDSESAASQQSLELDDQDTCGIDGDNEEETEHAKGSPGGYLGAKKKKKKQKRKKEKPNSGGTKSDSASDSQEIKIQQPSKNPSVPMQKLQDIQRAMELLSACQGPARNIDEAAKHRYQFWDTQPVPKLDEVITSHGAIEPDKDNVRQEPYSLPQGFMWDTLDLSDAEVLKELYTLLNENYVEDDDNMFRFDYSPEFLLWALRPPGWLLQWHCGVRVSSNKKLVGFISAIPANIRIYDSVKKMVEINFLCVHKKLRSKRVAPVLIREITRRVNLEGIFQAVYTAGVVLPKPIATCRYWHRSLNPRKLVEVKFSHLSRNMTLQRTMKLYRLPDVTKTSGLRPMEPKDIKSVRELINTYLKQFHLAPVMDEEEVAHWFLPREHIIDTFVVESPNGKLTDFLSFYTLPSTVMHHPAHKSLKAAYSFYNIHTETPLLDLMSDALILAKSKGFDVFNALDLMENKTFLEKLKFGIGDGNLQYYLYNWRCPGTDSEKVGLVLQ
UniProt O75695: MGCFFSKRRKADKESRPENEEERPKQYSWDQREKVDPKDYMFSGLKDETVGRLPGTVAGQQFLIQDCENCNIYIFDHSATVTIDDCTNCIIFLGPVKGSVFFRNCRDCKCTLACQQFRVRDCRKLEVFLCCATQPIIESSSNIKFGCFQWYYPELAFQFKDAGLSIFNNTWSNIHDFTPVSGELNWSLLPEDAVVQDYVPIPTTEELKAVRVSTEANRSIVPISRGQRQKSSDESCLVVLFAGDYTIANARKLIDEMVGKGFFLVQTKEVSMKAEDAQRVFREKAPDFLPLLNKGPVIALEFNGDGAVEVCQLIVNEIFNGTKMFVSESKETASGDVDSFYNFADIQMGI
UniProt O75600: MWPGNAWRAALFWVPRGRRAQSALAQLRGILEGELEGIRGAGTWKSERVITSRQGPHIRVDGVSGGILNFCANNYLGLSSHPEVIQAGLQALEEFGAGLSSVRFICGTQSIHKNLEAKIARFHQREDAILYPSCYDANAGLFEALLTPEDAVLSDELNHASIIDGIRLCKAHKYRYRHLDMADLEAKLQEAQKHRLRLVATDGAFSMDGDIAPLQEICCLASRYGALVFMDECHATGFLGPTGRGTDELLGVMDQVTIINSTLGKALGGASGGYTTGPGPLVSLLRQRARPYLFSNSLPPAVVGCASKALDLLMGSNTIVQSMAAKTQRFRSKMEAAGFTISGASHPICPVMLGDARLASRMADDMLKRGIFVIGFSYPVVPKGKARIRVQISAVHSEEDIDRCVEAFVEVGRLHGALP
UniProt O75882: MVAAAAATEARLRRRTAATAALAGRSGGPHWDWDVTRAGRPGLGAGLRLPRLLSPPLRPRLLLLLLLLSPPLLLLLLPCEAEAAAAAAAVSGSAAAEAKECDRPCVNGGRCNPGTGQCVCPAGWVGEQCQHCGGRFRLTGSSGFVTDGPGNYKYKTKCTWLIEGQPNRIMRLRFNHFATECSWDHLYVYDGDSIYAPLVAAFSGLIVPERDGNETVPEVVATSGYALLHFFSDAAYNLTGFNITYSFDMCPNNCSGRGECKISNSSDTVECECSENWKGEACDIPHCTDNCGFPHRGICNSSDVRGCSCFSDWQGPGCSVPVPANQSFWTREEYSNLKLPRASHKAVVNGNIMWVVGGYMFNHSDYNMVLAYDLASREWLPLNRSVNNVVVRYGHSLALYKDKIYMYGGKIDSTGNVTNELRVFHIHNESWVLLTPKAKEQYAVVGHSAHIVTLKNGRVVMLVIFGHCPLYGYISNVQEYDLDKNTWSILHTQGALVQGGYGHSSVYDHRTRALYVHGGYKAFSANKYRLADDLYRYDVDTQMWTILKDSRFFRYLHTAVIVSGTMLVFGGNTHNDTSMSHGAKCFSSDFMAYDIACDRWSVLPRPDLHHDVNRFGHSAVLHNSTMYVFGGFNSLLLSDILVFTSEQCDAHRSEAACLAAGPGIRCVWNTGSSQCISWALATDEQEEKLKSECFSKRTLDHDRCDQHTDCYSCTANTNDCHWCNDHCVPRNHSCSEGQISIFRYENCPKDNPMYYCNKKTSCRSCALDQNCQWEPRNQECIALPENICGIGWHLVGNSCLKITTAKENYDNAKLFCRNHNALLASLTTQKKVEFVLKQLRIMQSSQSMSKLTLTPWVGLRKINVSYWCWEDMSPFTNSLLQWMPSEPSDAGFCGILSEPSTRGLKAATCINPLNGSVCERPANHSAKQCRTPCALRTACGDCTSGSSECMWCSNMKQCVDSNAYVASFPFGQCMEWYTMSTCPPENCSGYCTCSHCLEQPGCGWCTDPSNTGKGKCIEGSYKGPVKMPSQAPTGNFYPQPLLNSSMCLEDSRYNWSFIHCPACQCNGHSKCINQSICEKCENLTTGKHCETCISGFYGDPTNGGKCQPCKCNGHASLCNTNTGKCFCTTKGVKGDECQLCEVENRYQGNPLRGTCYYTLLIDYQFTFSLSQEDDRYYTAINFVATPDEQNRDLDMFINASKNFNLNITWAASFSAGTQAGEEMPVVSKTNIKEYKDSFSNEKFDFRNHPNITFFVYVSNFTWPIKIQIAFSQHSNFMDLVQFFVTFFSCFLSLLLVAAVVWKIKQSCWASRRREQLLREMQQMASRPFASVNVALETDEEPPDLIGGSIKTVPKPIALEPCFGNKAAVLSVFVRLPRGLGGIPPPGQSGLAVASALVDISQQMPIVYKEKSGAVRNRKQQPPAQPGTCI

The list shows a part of the results. This is a noisy data set.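 Tm was set to 64 °C where no melting was found, and many curves are irregular.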

Compound in the first test: CCc1cnccc1C(=O)Nc1cc2c(cc1F)NC(=O)CC2
Nature of the test: melting temperature shift (DMSO Tm minus MBE1-treated Tm) in cellular thermal proteome profiling; higher = less thermal stabilization by MBE1 (negative = stabilized by MBE1). As to conditions: A375; MBE1 concentration: 100 nM.
For the target NME6 (UniProt O75414), the melting temperature shift was -1.7 °C.

As to NOS1AP (UniProt O75052), the melting temperature shift is -0.244 °C.

For PEX1 (UniProt O43933), the melting temperature shift was found to be 0.415 °C.

Consider UniProt O43529, for which the melting temperature shift was -1.88 °C.

For the target NDUFA2 (UniProt O43678), the melting temperature shift is -2.5 °C.

In the case of SNRNP200 (UniProt O75643), the melting temperature shift came out at 0.855 °C.

Turning to RPP40 (UniProt O75818), the melting temperature shift was -2.3 °C.

Turning to PRPF40A (UniProt O75400), the melting temperature shift was -0.955 °C.

As to NDUFB3 (UniProt O43676), the melting temperature shift is -3.93 °C.

With SPAG9 (UniProt O60271), the melting temperature shift is 0.861 °C.

Regarding EIF3J (UniProt O75822), the melting temperature shift was -1.16 °C.

In the case of CPNE3 (UniProt O75131), the melting temperature shift worked out at 0.336 °C.

As for PDCD6 (UniProt O75340), the melting temperature shift was -1.16 °C.

On to EIF4G3 (UniProt O43432), for which the melting temperature shift is -0.671 °C.

In the case of MED14 (UniProt O60244), the melting temperature shift is 0.69 °C.

Regarding UniProt O60512, the melting temperature shift was -0.722 °C.

For UniProt O75317, the melting temperature shift is -0.892 °C.

On to PPP1R11 (UniProt O60927), for which the melting temperature shift was 0 °C.

On to ACTN4 (UniProt O43707), for which the melting temperature shift was -1.77 °C.

As for KPNA6 (UniProt O60684), the melting temperature shift was -0.842 °C.

Take UniProt O60551: the melting temperature shift was -1.63 °C.

For SF3B1 (UniProt O75533), the melting temperature shift was 0.794 °C.

As for RP2 (UniProt O75695), the melting temperature shift was 0.189 °C.

Regarding PRKRA (UniProt O75569), the melting temperature shift was -0.957 °C.

Regarding KDM1A (UniProt O60341), the melting temperature shift was -1.23 °C.

As to SMARCA5 (UniProt O60264), the melting temperature shift is -0.128 °C.

Regarding PPM1B (UniProt O75688), the melting temperature shift is -0.407 °C.

For XYLB (UniProt O75191), the melting temperature shift was -0.819 °C.

For AQR (UniProt O60306), the melting temperature shift was 0.357 °C.

For SNX2 (UniProt O60749), the melting temperature shift was -0.299 °C.

Regarding KIN (UniProt O60870), the melting temperature shift was -0.0705 °C.

In the case of B4GAT1 (UniProt O43505), the melting temperature shift was -0.503 °C.

Consider OFD1 (UniProt O75665), for which the melting temperature shift was -1.78 °C.

In the case of KDM4A (UniProt O75164), the melting temperature shift was -4.65 °C.

On to DENND4B (UniProt O75064), for which the melting temperature shift was -0.0916 °C.

Consider GCAT (UniProt O75600), for which the melting temperature shift is -0.763 °C.

Turning to ATRN (UniProt O75882), the melting temperature shift came to 0.183 °C.

NUDT21 (UniProt O43809): the melting temperature shift was -1.02 °C.

The test is the same for the next values; noted with them: A375; MBE1 concentration: 1 uM.
In the case of NME6 (UniProt O75414), the melting temperature shift was -1.29 °C.

As for NOS1AP (UniProt O75052), the melting temperature shift is -0.855 °C.

Consider PEX1 (UniProt O43933), for which the melting temperature shift is 0.183 °C.

Take UniProt O43529: the melting temperature shift was found to be 4.51 °C.

As for NDUFA2 (UniProt O43678), the melting temperature shift was determined as 0.862 °C.

As for SNRNP200 (UniProt O75643), the melting temperature shift is 0.055 °C.

Consider RPP40 (UniProt O75818), for which the melting temperature shift is -0.733 °C.

With PRPF40A (UniProt O75400), the melting temperature shift was -0.223 °C.

In the case of NDUFB3 (UniProt O43676), the melting temperature shift was -3.97 °C.

In the case of SPAG9 (UniProt O60271), the melting temperature shift was determined as 0.177 °C.

Consider EIF3J (UniProt O75822), for which the melting temperature shift was found to be 0.376 °C.

CPNE3 (UniProt O75131): the melting temperature shift was found to be 0.324 °C.

Regarding PDCD6 (UniProt O75340), the melting temperature shift was -0.751 °C.

For the target EIF4G3 (UniProt O43432), the melting temperature shift is -0.263 °C.

Consider MED14 (UniProt O60244), for which the melting temperature shift came out at 0.476 °C.

UniProt O60512: the melting temperature shift is -1.18 °C.

On to UniProt O75317, for which the melting temperature shift was -1.9 °C.

As for PPP1R11 (UniProt O60927), the melting temperature shift was -2.65 °C.

As for ACTN4 (UniProt O43707), the melting temperature shift was -1.47 °C.

KPNA6 (UniProt O60684): the melting temperature shift was -1.11 °C.

Consider UniProt O60551, for which the melting temperature shift was determined as 0.208 °C.

With SF3B1 (UniProt O75533), the melting temperature shift amounted to 0.733 °C.

Regarding RP2 (UniProt O75695), the melting temperature shift was 0.238 °C.

With PRKRA (UniProt O75569), the melting temperature shift came to 1.01 °C.

KDM1A (UniProt O60341): the melting temperature shift was -0.537 °C.

With SMARCA5 (UniProt O60264), the melting temperature shift is -0.397 °C.

Consider PPM1B (UniProt O75688), for which the melting temperature shift was 0.281 °C.

Take XYLB (UniProt O75191): the melting temperature shift is -0.231 °C.

In the case of AQR (UniProt O60306), the melting temperature shift came out at 1.27 °C.

With SNX2 (UniProt O60749), the melting temperature shift is -0.263 °C.

With KIN (UniProt O60870), the melting temperature shift amounted to 0.0641 °C.

As for B4GAT1 (UniProt O43505), the melting temperature shift stood at 0.684 °C.

Regarding OFD1 (UniProt O75665), the melting temperature shift came out at 2.8 °C.

With KDM4A (UniProt O75164), the melting temperature shift is -5.67 °C.

As for DENND4B (UniProt O75064), the melting temperature shift came to 0.427 °C.

Consider GCAT (UniProt O75600), for which the melting temperature shift is -1.46 °C.

ATRN (UniProt O75882): the melting temperature shift stood at 2.09 °C.

On to NUDT21 (UniProt O43809), for which the melting temperature shift was determined as 0.604 °C.
